These are yes or no findings as the source states them, for the method shown. In cells and extracts the contact can be indirect. These calls come from enrichment with a bait or labelling near it, and not all partners need be listed.
Target: T1, Kallikrein-related peptidase 8 (human) (UniProt O60259)
T1 sequence: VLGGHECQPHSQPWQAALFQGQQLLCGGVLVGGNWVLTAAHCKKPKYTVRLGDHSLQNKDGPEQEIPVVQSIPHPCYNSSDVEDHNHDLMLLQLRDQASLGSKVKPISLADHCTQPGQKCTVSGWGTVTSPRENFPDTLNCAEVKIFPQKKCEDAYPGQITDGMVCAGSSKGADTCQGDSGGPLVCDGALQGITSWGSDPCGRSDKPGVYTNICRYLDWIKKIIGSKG
Test: affinity purification with mass spectrometry

The chains behind the UniProt entries cited, without tags or fusion partners. Residues count along the entry.
UniProt P31431, residues 19-198: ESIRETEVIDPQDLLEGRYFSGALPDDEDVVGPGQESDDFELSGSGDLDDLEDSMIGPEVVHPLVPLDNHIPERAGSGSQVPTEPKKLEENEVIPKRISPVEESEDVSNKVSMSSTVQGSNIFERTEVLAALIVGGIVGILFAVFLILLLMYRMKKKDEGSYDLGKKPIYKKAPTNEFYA

syndecan-4 (from UniProt P31431 19-198)
binding: binds

Source: paper doi:10.1101/2025.07.01.662673
